Results as given in article PMC2409314.

The chains behind the UniProt entries cited, without tags or fusion partners. Where a name states a change or a piece, a line headed by the entry shows the natural chain unless it says otherwise.
UniProt P52947: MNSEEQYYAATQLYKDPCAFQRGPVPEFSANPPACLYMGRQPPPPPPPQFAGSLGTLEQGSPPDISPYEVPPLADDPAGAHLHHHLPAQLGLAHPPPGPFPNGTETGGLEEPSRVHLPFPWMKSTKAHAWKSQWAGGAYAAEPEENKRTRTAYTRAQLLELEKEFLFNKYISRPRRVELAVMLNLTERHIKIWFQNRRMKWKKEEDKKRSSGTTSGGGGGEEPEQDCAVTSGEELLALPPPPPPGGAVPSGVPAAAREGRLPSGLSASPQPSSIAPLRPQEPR

Columns and labels:
PREP1 = biological target: T1, PREP1 (UniProt P55347); test: EMSA; settings: tested alone; 2 ug nuclear extract or 1 ul ivt protein, 0.1 ng 32P ds oligo, 1 ug poly(dI-dC); antiserum preincubation 15 min at room temperature; protein translated in vitro; label: 32P (Klenow)
T1 sequence (looked up, limits assumed): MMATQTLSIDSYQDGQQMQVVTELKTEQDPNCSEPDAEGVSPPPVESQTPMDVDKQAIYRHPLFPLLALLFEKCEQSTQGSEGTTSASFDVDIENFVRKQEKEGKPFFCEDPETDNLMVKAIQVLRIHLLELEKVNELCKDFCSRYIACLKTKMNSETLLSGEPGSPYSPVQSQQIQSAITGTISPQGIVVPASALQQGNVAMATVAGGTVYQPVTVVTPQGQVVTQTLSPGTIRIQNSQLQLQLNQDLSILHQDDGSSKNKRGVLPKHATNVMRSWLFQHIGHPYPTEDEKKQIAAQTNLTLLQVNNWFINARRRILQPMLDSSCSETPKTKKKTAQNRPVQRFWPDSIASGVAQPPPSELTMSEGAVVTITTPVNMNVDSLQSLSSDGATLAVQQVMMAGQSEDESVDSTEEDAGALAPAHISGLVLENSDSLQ

PBX1a (long isoform) = biological target: T2, PBX1a (long isoform) (UniProt P41778); test: EMSA; settings: tested alone; 2 ug nuclear extract or 1 ul ivt protein, 0.1 ng 32P ds oligo, 1 ug poly(dI-dC); antiserum preincubation 15 min at room temperature; protein translated in vitro; label: 32P (Klenow)
T2 sequence (looked up, limits assumed): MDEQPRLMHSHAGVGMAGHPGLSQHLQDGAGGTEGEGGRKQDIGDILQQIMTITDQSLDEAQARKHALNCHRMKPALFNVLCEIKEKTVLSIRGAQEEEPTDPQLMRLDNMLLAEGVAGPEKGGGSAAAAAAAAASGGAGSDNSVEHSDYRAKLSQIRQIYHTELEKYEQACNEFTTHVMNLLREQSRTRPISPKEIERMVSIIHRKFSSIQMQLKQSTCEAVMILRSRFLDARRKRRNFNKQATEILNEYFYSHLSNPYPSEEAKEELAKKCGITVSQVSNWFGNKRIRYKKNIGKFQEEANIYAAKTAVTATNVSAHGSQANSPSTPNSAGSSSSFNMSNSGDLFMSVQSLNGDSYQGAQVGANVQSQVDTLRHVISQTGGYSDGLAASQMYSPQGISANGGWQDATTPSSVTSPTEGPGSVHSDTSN

PDX1 (STF-1) = PDX1 (STF-1) (UniProt P52947); test: EMSA; settings: 2 ug nuclear extract or 1 ul ivt protein, 0.1 ng 32P ds oligo, 1 ug poly(dI-dC), antiserum preincubation 15 min at room temperature, recombinant protein
[1] = system: PBX long isoforms (PBX1a/PBX2/PBX3a) + PREP1 + PDX1; test: EMSA supershift; settings: complex T', PDX1, PBX long and PREP1 antibodies; 2 ug nuclear extract or 1 ul ivt protein, 0.1 ng 32P ds oligo, 1 ug poly(dI-dC); antiserum preincubation 15 min at room temperature; protein in an extract; label: 32P (Klenow)
[2] = system: PBX long isoforms (PBX1a/PBX2/PBX3a) + PREP1; test: EMSA supershift; settings: 2 ug nuclear extract or 1 ul ivt protein, 0.1 ng 32P ds oligo, 1 ug poly(dI-dC), antiserum preincubation 15 min at room temperature, protein in an extract, label: 32P (Klenow)
PDX1 [3] = test: EMSA; settings: 2 ug nuclear extract or 1 ul ivt protein, 0.1 ng 32P ds oligo, 1 ug poly(dI-dC); antiserum preincubation 15 min at room temperature; protein in an extract; label: 32P (Klenow) as probe, unlabeled as competitor
[4] = system: PBX long isoforms (PBX1a/PBX2/PBX3a) + PREP1 + PDX1; test: EMSA; competition; settings: PA1a probe, and as competitor of PA1b probe; 2 ug nuclear extract or 1 ul ivt protein, 0.1 ng 32P ds oligo, 1 ug poly(dI-dC); antiserum preincubation 15 min at room temperature; protein in an extract; label: 32P (Klenow) as probe, unlabeled as competitor
[5] = system: PBX long isoforms (PBX1a/PBX2/PBX3a) + PREP1; test: EMSA; competition; settings: PA1a probe, and as competitor of PA1b probe; 2 ug nuclear extract or 1 ul ivt protein, 0.1 ng 32P ds oligo, 1 ug poly(dI-dC); antiserum preincubation 15 min at room temperature; protein in an extract; label: 32P (Klenow) as probe, unlabeled as competitor
PDX1 [6] = test: EMSA supershift; settings: complex lost with PDX1 antibody, competed by PC3b; 2 ug nuclear extract or 1 ul ivt protein, 0.1 ng 32P ds oligo, 1 ug poly(dI-dC); antiserum preincubation 15 min at room temperature; protein in an extract; label: 32P (Klenow)
[7] = system: PBX long isoforms (PBX1a/PBX2/PBX3a) + PREP1 + PDX1; test: EMSA; settings: T and T' complexes never detected; 2 ug nuclear extract or 1 ul ivt protein, 0.1 ng 32P ds oligo, 1 ug poly(dI-dC); antiserum preincubation 15 min at room temperature; protein in an extract; label: 32P (Klenow)
PDX1 [8] = test: competition with a labelled probe; settings: 10 ng unlabeled, PC3b probe; 2 ug nuclear extract or 1 ul ivt protein, 0.1 ng 32P ds oligo, 1 ug poly(dI-dC); antiserum preincubation 15 min at room …; protein in an extract; label: unlabeled competitor
[9] = system: PBX long isoforms (PBX1a/PBX2/PBX3a) + PREP1; test: competition with a labelled probe; settings: 10 ng (100-fold) unlabeled, 2 ug nuclear extract or 1 ul ivt protein, 0.1 ng 32P ds oligo, 1 ug poly(dI-dC), antiserum preincubation 15 min at room temperature, protein in an extract, label: unlabeled competitor

Sequence: GATCGCATCACGATCAATCACAGCGCT (double strand) [PA1b]
- binding result (PREP1): no binding
- binding result (PBX1a (long isoform)): no binding
- binding result (PDX1 (STF-1); without PBX and PREP1, label: 32P (Klenow)): no binding
- binding result [1]: binds
- binding result ([2]; complex L, blocked by PBX long and PREP1 antibodies): binds

Sequence: GATCGGGGTCTAAACGGTGCAG (double strand) [PC3a]
- binding result (PDX1 [3]): no binding
- binding result (PDX1 (STF-1); label: 32P (Klenow) as probe, unlabeled as competitor): no binding

Sequence: GATCTAATTTTGTTGTACCATGATATCG (double strand) [PA1a]
- binding result [4]: no binding
- binding result [5]: no binding

Sequence: GATCTAGCTCTTAATTGTGGTT (double strand) [PC3b]
- binding result (PDX1 [6]): binds

Sequence: GATCTGGCAGCTGTCAATCATTTC (double strand) [PA2b]
- binding result [7]: no binding
- binding result ([2]; complex L, competed by PA2b, PA1b, UE-A): binds

Sequence: GATCTTCTTTCCTTCCTTTTGC (double strand) [UE-Amut]
- binding result (PDX1 [8]): no binding
- binding result ([9]; PA1b probe): no binding

Sequence: GATCTTCTTTGATTGATTTTGC (double strand) [UE-A]
- binding result (PDX1 [8]): no binding
- binding result ([9]; PA1b or PA2b probe): binds

Sequence: GATCTTGACCGCATGATAAGC (double strand) [PC1b]
- binding result [2]: binds

For at least one entry, the source does not settle the construct or the ends of the probe. For some assays here: Negatives hold for the conditions tested. For some assays here: At least one verdict rests on a figure or table, not on a statement of the authors. For some assays here: Protein sequences can lack the tags named with them. For some assays here: Results from cells or extracts need not show a direct contact.
